# PubChem BioAssay AID1259286, Sanger Institute – 2017
# Purpose: 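Kinome knock-downs lethal on their own or synergistic with anchor drugs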 (primary screen)
# Cell system: NCI-H630 human colorectal cancer cells
# Reagent: siRNA pool against human genes
# Conditions: anchor drugs BYL719 at 1 µM, cetuximab at 5 µg/ml or trametinib at 10 nM, or DMSO vehicle alone; exposure time not given
# Detection: 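Replicate-averaged viability as a fraction of non-targeting control, knock-down-alone robust z-score, and per-drug synergy scores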
# Reading the numbers: viability z-score, knock-down alone: higher = more viable cells, weaker knock-down effect; viability vs control, knock-down alone: higher = more viable cells
# Active means: 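Essential call: robust z-score of viability with siRNA alone lower than -3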
# Meaning of the calls: active = essential when knocked down alone; inactive = not essential alone
# Shown is one part, drawn at random, of 794 deposited reagents. Over the whole deposit, 17 (2.1%) were called active. 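Calls use knock-down alone only; synergy above 0.15 marked separately; viability seems capped at control level; exposure time not given.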 Not all columns of the deposit are shown. Not given: the amount of reagent, the time to read-out.
gene knocked down,"viability z-score, knock-down alone","viability vs control, knock-down alone (fraction of control)",Outcome
SIK1,0.464,1,inactive
PRKAA2,0.0295,0.984,inactive
DGKB,0.00521,0.983,inactive
GRK5,0.464,1,inactive
LYN,-1.07,0.942,inactive
SPHK2,0.464,1,inactive
MAP3K11,0.464,1,inactive
JAK2,0.464,1,inactive
CDK5R2,0.464,1,inactive
DAPK1,0.464,1,inactive
DCLK1,0.464,1,inactive
ACVR1C,0.464,1,inactive
HUS1,-0.522,0.963,inactive
NEK8,0.464,1,inactive
MAPKAPK3,-0.144,0.977,inactive
LMTK3,-0.188,0.975,inactive
TGFBR1,0.464,1,inactive
KIT,0.464,1,inactive
MAP2K5,0.464,1,inactive
MYLK3,-0.569,0.961,inactive
DYRK2,-1.27,0.934,inactive
PIK3C3,0.464,1,inactive
MAP3K9,0.464,1,inactive
MAP2K2,0.464,1,inactive
ACSL6,-2.63,0.883,inactive
MYH10,0.115,0.987,inactive
PIK3R5,0.464,1,inactive
TLK2,-0.752,0.954,inactive
TAOK3,0.464,1,inactive
TJP2,0.464,1,inactive
CAMKV,0.464,1,inactive
TP53RK,0.464,1,inactive
TTK,-3.44,0.852,active
NEK7,0.464,1,inactive
PNCK,0.464,1,inactive
SRGAP3,0.464,1,inactive
CTNNB1,-1.52,0.925,inactive
N4BP2,0.464,1,inactive
PTPN11,0.464,1,inactive
VRK1,-1.54,0.924,inactive
MAP3K20,0.106,0.986,inactive
BRDT,-0.178,0.976,inactive
AKT3,-0.0377,0.981,inactive
BMPR2,0.0746,0.985,inactive
STK32C,0.464,1,inactive
NUP107,-0.912,0.948,inactive
PKN3,0.464,1,inactive
FCSK,0.464,1,inactive
SOX9,0.464,1,inactive
PKM,0.464,1,inactive
CLK1,0.464,1,inactive
RPS6KA6,0.464,1,inactive
LMBR1,0.464,1,inactive
PRKAR1A,0.464,1,inactive
RIOK3,0.464,1,inactive
DYRK1A,0.464,1,inactive
NLK,-1.36,0.931,inactive
WHR1,0.464,1,inactive
STK31,0.464,1,inactive
RIPK4,0.464,1,inactive
PRKD1,0.464,1,inactive
SMG1,0.464,1,inactive
EPHA8,0.464,1,inactive

Laid out differently: results already given
MAP3K20 → viability z-score, knock-down alone = 0.106; viability vs control, knock-down alone (fraction of control) = 0.986; Outcome = inactive
BRDT → viability z-score, knock-down alone = -0.178; viability vs control, knock-down alone (fraction of control) = 0.976; Outcome = inactive
AKT3 → viability z-score, knock-down alone = -0.0377; viability vs control, knock-down alone (fraction of control) = 0.981; Outcome = inactive
